Measurements: the supplement of paper PMC10849652
The other results are listed elsewhere or left out.

Chains of the proteins cited; added tags and fusions are not shown. Lines headed by an entry give the natural chain unless they say otherwise; changes in a name come on top.
UniProt P34949: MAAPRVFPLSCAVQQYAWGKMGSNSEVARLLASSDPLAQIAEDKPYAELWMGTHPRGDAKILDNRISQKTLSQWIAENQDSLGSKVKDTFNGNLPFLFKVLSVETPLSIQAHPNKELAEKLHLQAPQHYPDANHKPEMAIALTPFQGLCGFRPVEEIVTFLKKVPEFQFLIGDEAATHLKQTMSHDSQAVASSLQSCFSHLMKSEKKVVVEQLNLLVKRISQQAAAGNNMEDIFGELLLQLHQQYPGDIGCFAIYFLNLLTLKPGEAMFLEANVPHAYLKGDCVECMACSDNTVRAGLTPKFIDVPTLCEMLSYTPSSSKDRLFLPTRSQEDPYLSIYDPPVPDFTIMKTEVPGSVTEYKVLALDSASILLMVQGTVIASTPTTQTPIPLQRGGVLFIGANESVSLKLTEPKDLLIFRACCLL
UniProt P51948: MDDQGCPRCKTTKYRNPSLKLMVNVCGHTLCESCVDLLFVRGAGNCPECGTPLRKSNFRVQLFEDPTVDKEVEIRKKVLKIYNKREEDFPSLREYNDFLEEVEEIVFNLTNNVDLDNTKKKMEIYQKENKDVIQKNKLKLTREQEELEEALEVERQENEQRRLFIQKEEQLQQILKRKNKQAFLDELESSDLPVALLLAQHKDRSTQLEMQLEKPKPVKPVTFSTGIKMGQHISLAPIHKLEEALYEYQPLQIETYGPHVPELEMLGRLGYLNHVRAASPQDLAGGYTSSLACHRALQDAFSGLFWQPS
UniProt P14174: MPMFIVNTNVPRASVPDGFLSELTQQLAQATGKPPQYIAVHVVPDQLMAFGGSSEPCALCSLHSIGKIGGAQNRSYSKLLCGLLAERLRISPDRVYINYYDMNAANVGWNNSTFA
UniProt O95563: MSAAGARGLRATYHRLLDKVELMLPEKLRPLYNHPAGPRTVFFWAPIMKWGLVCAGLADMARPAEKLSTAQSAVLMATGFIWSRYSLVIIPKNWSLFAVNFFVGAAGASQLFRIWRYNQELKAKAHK
UniProt Q15014, whole entry, looked up: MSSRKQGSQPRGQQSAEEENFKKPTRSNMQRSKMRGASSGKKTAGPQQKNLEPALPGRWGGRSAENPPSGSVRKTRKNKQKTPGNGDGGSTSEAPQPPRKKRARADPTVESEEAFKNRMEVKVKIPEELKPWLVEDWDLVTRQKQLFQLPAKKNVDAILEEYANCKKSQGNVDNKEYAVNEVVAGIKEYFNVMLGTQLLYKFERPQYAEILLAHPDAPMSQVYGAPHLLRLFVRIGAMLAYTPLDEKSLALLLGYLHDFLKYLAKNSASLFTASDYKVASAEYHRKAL
UniProt Q9H8M7: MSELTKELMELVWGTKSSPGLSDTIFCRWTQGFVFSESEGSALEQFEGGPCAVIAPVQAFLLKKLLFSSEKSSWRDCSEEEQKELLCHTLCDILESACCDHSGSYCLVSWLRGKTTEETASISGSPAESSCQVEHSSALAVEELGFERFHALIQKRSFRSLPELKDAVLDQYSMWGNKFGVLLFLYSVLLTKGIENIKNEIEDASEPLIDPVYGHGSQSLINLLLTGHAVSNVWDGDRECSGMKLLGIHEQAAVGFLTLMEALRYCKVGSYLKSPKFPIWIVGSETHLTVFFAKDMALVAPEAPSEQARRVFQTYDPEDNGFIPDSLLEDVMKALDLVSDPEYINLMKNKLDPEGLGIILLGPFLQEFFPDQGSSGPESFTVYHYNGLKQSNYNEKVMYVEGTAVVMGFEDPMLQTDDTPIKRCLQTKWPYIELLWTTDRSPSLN
UniProt Q8WV92, whole entry, looked up: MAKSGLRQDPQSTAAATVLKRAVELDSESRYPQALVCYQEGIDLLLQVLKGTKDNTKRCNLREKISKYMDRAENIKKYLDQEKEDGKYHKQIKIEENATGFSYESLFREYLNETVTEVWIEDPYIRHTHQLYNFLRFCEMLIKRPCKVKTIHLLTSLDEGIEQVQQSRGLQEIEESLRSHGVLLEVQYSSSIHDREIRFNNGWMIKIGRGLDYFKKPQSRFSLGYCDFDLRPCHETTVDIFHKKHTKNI
UniProt Q96T76: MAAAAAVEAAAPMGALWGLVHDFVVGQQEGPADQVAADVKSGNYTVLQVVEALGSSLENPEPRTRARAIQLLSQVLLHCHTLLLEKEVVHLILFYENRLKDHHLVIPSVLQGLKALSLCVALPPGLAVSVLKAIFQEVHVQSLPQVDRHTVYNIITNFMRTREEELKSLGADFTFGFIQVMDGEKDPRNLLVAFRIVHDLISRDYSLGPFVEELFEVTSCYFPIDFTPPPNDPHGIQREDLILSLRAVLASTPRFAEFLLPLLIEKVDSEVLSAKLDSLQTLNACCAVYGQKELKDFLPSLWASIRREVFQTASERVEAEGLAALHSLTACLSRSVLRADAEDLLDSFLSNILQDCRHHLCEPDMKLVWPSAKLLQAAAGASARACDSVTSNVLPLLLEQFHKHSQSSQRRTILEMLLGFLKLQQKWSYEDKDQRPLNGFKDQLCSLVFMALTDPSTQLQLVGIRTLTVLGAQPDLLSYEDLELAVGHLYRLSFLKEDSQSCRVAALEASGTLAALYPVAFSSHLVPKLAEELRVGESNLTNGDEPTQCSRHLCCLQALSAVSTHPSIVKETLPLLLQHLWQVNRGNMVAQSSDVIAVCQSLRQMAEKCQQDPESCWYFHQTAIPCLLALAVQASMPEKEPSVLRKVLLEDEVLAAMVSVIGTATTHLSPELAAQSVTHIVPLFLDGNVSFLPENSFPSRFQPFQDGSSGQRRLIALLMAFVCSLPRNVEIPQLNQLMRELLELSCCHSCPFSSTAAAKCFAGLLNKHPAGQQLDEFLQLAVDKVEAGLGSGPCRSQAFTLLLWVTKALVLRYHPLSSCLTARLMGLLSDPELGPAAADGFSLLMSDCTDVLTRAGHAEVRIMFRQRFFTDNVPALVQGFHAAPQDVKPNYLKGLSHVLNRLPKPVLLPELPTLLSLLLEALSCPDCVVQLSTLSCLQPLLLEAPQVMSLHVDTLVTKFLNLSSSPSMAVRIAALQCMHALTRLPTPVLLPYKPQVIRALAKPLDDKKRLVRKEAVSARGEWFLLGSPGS
UniProt Q9HCE1: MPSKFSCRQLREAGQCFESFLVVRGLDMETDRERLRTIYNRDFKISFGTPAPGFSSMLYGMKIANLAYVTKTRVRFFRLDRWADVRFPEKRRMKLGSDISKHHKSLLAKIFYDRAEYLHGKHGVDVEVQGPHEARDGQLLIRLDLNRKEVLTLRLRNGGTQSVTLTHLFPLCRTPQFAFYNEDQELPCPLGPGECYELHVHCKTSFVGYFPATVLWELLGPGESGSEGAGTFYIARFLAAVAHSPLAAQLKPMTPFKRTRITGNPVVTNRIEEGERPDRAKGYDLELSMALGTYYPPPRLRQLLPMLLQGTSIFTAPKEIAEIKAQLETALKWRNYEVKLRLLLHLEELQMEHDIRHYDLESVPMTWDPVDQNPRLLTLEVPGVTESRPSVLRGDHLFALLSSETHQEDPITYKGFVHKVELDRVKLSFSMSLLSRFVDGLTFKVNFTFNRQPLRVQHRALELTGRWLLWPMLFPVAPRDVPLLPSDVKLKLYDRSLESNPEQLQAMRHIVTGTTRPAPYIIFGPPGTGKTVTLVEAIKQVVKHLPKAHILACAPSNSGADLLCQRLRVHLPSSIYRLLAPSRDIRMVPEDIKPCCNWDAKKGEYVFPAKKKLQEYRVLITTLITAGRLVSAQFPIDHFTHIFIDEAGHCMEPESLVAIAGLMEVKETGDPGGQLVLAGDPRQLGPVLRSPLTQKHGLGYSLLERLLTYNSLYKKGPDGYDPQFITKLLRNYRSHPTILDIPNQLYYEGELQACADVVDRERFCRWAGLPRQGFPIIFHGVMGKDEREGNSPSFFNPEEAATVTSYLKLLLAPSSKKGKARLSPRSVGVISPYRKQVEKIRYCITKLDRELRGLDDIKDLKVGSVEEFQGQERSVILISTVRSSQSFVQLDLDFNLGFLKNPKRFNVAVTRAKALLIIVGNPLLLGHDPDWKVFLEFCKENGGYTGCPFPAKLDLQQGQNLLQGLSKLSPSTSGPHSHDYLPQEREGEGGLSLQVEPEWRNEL

Legend:
Assay in all cases: log2 fold change, soluble protein after heating vs DMSO (PISA); higher = thermal stabilisation; K562 cells, 10 uM, 30 min; active = over 0.2 and 3.5 SD of the protein, either way, in both replicates (recomputed)
[1] = compound: C#Cc1cccc(Nc2ncnc3cc(OCCOC)c(OCCOC)cc23)c1 [erlotinib]
Method in brief: (§1)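 Values are thermal stability changes relative to control samples and are taken from duplicates. They are stated as log2 fold changes. Before quantification by TMTpro 16plex LC-MS/MS with equalised channel sums, K562 cells at 2×10^6 cells/mL were treated with 10 μM compound for 30 min, heated in aliquots for 3 min across 48°C-58°C, pooled, extracted in PBS with 0.5% NP-40 at 4°C, and centrifuged at 21,000xg for 90 min to give the soluble supernatant.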

[2] = compound: C/C(=N\NC(=O)C1=CC(=CC=C1)S(=O)(=O)N2CCOCC2)/C3=C(C=CC(=C3)Cl)O
Method in brief: as §1

[3] = compound: C1=CC(=C(C=C1Cl)C2=NC3=NC=CN=C3C(=N2)NC4=CC=NC=C4)F
Method in brief: as §1

[4] = compound: C1=CC(=CC=C1C2=NC3=C(N2)C=C(C=C3)C(=O)N)OC4=CC=C(C=C4)Cl
Method in brief: as §1

[5] = compound: C1=CC2=C(C=CC(=C2)/C=C\3/C(=O)NC(=NCC4=CC=CS4)S3)N=C1
Method in brief: as §1

[6] = compound: C1=CC2=NC=CN=C2C=C1/C=C/3\C(=O)NC(=O)S3
Method in brief: as §1

[7] = compound: C1=CC=C(C=C1)C2=NC(=C(N2)C3=CC=NC=C3)C4=CC(=C(C=C4)Cl)O
Method in brief: as §1

[8] = compound: C1=CC=C2C(=C1)C3=NNC4=CC=CC(=C43)C2=O
Method in brief: as §1

[9] = compound: C1CCN(C1)C(=O)NC2=CC=CC(=C2)NC3=NC=C(C(=N3)NCCC4=CN=CN4)Br
Method in brief: as §1

[10] = compound: C1CN(CCC1(CC2=CC=C(C=C2)Cl)N)C3=NC=NC4=C3C=CN4
Method in brief: as §1

Measured: log2 fold change

MPI (UniProt P34949)
inactive: [1] 0.008 | [2] -0.073 | [3] 0.059 | [4] 0.057 | [5] 0.035 | [6] -0.035 | [7] 0.09 | [8] 0.056 | [9] 0.015 | [10] 0.086

MRPL51 (UniProt Q4U2R6)
inactive: [1] -0.098 | [2] -0.143 | [3] -0.274 | [4] 0.17 | [5] -0.105 | [6] 0 | [7] -0.03 | [8] 0.159 | [9] 0.054 | [10] -0.119

MNAT1 (UniProt P51948)
inactive: [1] 0.01 | [2] 0.04 | [3] -0.066 | [4] 0.012 | [5] -0.012 | [6] 0.008 | [7] 0.002 | [8] -0.002 | [9] -0.067 | [10] -0.01

MRPL2 (UniProt Q5T653)
inactive: [1] -0.103 | [2] -0.149 | [3] 0.019 | [4] 0.101 | [5] -0.068 | [6] 0.005 | [7] -0.072 | [8] 0.171 | [9] -0.045 | [10] -0.083

MIF (UniProt P14174)
inactive: [1] 0.058 | [2] 0.128 | [4] 0.033 | [5] -0.07 | [6] 0.034 | [7] -0.037 | [8] -0.069 | [9] -0.057 | [10] -0.029
active: [3] 0.368

MICB, A0A140T979
inactive: [1] 0.034 | [2] 0.067 | [3] 0.072 | [4] -0.016 | [5] -0.052 | [6] 0.087 | [7] 0 | [8] -0.082 | [9] -0.082 | [10] -0.011

MPC2 (UniProt O95563)
inactive: [1] 0.021 | [2] 0.016 | [3] 0.079 | [4] 0.011 | [5] 0.011 | [6] 0.03 | [7] -0.005 | [8] -0.019 | [9] 0.009 | [10] 0.047

MRPL10 isoform 2 (UniProt Q7Z7H8)
inactive: [1] -0.15 | [2] -0.099 | [3] -0.07 | [4] 0.083 | [5] 0.009 | [6] -0.024 | [7] -0.005 | [8] 0.098 | [9] -0.03 | [10] -0.23

MORF4L2 (UniProt Q15014)
inactive: [1] -0.114 | [2] -0.056 | [3] -0.181 | [4] 0.02 | [5] -0.03 | [6] 0.002 | [7] -0.108 | [8] -0.039 | [9] -0.108 | [10] -0.051

MRPL27 (UniProt Q9P0M9)
inactive: [1] 0.012 | [2] 0.027 | [3] -0.078 | [4] -0.005 | [5] -0.141 | [6] 0.048 | [7] -0.015 | [8] 0.148 | [9] 0.028 | [10] -0.177

MINDY3 (UniProt Q9H8M7)
inactive: [1] 0.011 | [2] -0.015 | [3] 0.027 | [4] 0.011 | [5] 0.068 | [6] 0.009 | [7] 0.023 | [8] 0.036 | [9] -0.023 | [10] 0.089

MITD1 (UniProt Q8WV92)
inactive: [1] 0.011 | [2] -0.009 | [3] 0.148 | [4] 0.037 | [5] 0.044 | [6] 0.036 | [7] -0.015 | [8] 0.101 | [9] 0.03 | [10] -0.024

MMS19 isoform 8 (UniProt Q96T76)
inactive: [1] -0.01 | [2] 0.001 | [3] 0.044 | [4] -0.025 | [5] 0.113 | [6] 0.053 | [7] 0.05 | [8] 0.016 | [9] -0.01 | [10] -0.01

MRPL43 isoform 4 (UniProt Q8N983)
inactive: [1] -0.154 | [2] -0.061 | [3] -0.139 | [4] 0.09 | [5] 0.004 | [6] -0.056 | [7] -0.021 | [8] 0.067 | [9] -0.11 | [10] -0.278

MOV10 (UniProt Q9HCE1)
inactive: [1] -0.103 | [2] -0.062 | [3] -0.242 | [4] 0.026 | [5] -0.002 | [6] 0.049 | [7] -0.049 | [8] -0.054 | [9] 0.04 | [10] -0.158
